Results published in article PMC6536413, “Application of ultrasound‐guided cholecystocentesis to the evaluation of the metabolite profiling in bile of dogs and cynomolgus monkeys” (Pharmacology Research & Perspectives, 2019).

Tests used:
[1] = Plasma pharmacokinetics of ATV and metabolites in BDC and UCC dogs (LC-MS/MS); type: in vivo; details: male, beagle, dog, po, 40 mg/kg, 40 mg/kg oral dose of ATV, ± standard deviation; for AUC: read-out: AUC0‐24h
Description: (§1) Plasma samples were collected at 0.5, 1, 2, 4, 6, and 24 hours postdose via cephalic vein or indwelling cephalic catheter. At the 6‐ and 24‐hours postdose time points, dogs were sedated with propofol at 6 mg/kg through an indwelling cephalic catheter. The dogs were then positioned in a dorsal‐recumbency with head elevated. Heart rate, rhythm, and arterial oxygen saturation were monitored throughout the procedure. After shaving and aseptically preparing the abdominal skin immediately caudal to the xiphoid process, an ultrasound exam of the gallbladder and cranial abdomen was done using a Mylab30cv ultrasound system with 9‐3 MHz micro‐convex transducer (Esoate, Indianapolis, IN). A 21‐gauge, 1.5‐inch needle, attached to a 5‐mL syringe, was inserted percutaneously through the abdominal wall into the gallbladder lumen. Effort was made to completely empty the gallbladder by aspiration (typically, 2‐5 mL bile was obtained). The needle and syringe were withdrawn and the bile samples were immediately saved on dry ice for later analysis. Dogs were allowed to recover in their home cages. Both plasma and bile samples were stored at −20°C until analysis.
(§2) Plasma samples were collected from dogs and monkeys at 0.5, 1, 2, 4, 6, and 24 hours postdose. Bile samples were collected at 0‐2 hours, 2‐4 hours, 4‐6 hours, 6‐8 hours, and 8‐24 hours intervals. Both plasma and bile samples were stored at −20°C until analysis.
(§3) Quantification of ATV and its metabolites in dog and monkey plasma and bile was performed using LC‐MS/MS‐based analysis. Standard curves and quality control (QC) samples defining the dynamic range of the bioanalytical method were prepared in commercially available control plasma and processed in the same fashion as the test samples. When dilutions were required, an aliquot of the sample was diluted into control plasma. […] The supernatant was then separated from the precipitated proteins after a 10‐minute centrifugation at 3500 rpm (2109× g) at 10°C and transferred to an autosampler 96‐well plate. An aliquot (10 µL) was injected onto the ultrahigh performance liquid chromatography (UHPLC) column for LC‐MS/MS‐based analysis. Samples from individual animals were not pooled prior to quantitative analysis.
(§4) The UHPLC system Nexera (Shimadzu, Japan) consisted of two pumps (LC30AD), a column heater (CTO‐30A), and an autosampler (SIL‐30AC) equipped with a cooling compartment that maintained samples at 15°C during analysis. The analytical column used was a BEH C18 2.1 mm × 50 mm, 1.7 µm (Waters Corporation, Milford, MA) at 50°C. The mobile phase, which consisted of 0.1% formic acid in water (A) and acetonitrile (B), was delivered at a flow rate of 0.6 mL/min. The initial conditions were 100% aqueous followed by 1‐minute gradient to 100% acetonitrile then hold for 0.4 minutes and back to initial conditions.
(§5) The UHPLC was interfaced to a Finnigan TSQ Quantum Ultra LC‐MS/MS tandem mass spectrometer (Thermo Electron Corporation) equipped with heated electrospray ionization (HESI‐II) interface operating in the positive ionization mode. Ultrahigh‐purity nitrogen was used as the sheath and auxiliary gases at flow rates of 55 L/h for sheath and 25 L/h for auxiliary. The desolvation temperature was 300°C and the source temperature was 350°C. The detection of each analyte was achieved through selected reaction monitoring. Ions representing the precursor mass‐to‐charge ratio (m/z) species for all analytes were selected in quadrupole 1 and collisionally dissociated with ultrahigh‐purity argon at a pressure of 1.5 × 10^−3 torr to generate specific product ions, which were subsequently monitored by quadrupole 2.
(§6) The predicted concentrations of more than 2/3 of the QCs were within 20% of nominal values, indicating acceptable assay performance.
The peak concentration (Cmax) and time for Cmax (Tmax) were recorded directly from experimental observations. […]

[2] = Concentration of ATV and metabolites in dog bile obtained by BDC and UCC (LC-MS/MS); type: in vivo, beagle dogs; details: for Concentration in bile: BDC dogs, 40 mg/kg ATV orally, ± standard deviation
Description: as §1, §2, §3, §4, §5, §6

[3] = Plasma pharmacokinetics of ATV and metabolites in BDC and UCC monkeys (LC-MS/MS); type: in vivo, cynomolgus macaques; details: male, cynomolgus, cynomolgus monkey, po, 30 mg/kg, 30 mg/kg oral dose of ATV, ± standard deviation; for AUC: read-out: AUC0‐24h
Description: (§7) Plasma and bile samples were collected. For bile collection monkeys were sedated with ketamine (8 mg/kg) and dexmedetomidine (0.05 mg/kg) intramuscularly. At the conclusion of the procedure, sedation was reversed with atipamezole (0.15 mg/kg) intramuscularly. All other procedures were the same as for the dog.
as §2
as §3, with “Standard” for “Quantification of ATV and its metabolites in dog and monkey plasma and bile was performed using LC‐MS/MS‐based analysis. Standard”
as §4
The UHPLC was interfaced to a Finnigan TSQ Quantum Ultra LC‐MS/MS tandem mass spectrometer (Thermo Electron Corporation) equipped with heated electrospray ionization (HESI‐II) interface operating in the positive ionization mode. Ultrahigh‐purity nitrogen was used as the sheath and auxiliary gases at flow rates of 55 L/h for sheath and 25 L/h for auxiliary. The desolvation temperature was 300°C and the source temperature was 350°C. The detection of each analyte was achieved through selected reaction monitoring. […]
The peak concentration (Cmax) and time for Cmax (Tmax) were recorded directly from experimental observations. The area under the curve from time 0 to 24 hours (AUC0‐24h) was calculated using a combination of linear and log trapezoidal summations.

[4] = Concentration of ATV and metabolites in monkey bile obtained by BDC and UCC (LC-MS/MS); type: in vivo, cynomolgus macaques; details: for Concentration in bile: BDC monkeys, 30 mg/kg ATV orally
Description: as §7, §2, §3, §4, §5, §6

[5] = Metabolite profile of ATV in dog bile (LC-MS, UV 254 nm); type: in vivo, beagle dogs; details: UCC and BDC
Description: Dog bile samples obtained by cholecystocentesis were pooled across animals (n = 3). Samples were mixed with an equal volume of citrate buffer (100 mmol/L) to make the final buffer concentration of 50 mmol/L. The mixture was mixed by vortexing for 1 minute and then centrifuged at 12 000× g for 15 minutes. An aliquot (5‐10 μL) of the supernatant was injected onto the UHPLC column for LC‐MS/MS‐based analysis.
The metabolite profile was obtained using LTQ‐Orbitrap coupled with Accela UHPLC and PDA (ThermoScientific, San Jose, CA) and a CTC PAL autosampler equipped with a cooling stack that maintained samples at 4°C during analysis. A 20‐minute UHPLC method was developed. The column was Acquity UPLC HSS T3 (Waters, Milford, MA) 2.1 × 150 mm, 1.8 µm. The column was maintained at a temperature of 55°C. The mobile phase consisted of 0.1% formic acid in water (solvent A) and 0.1% formic acid in acetonitrile (solvent B) at a flowrate of 600 µL/min with the following linear gradient conditions: 5% A for 0.5 minutes, 20‐60% B over 14 minutes, 95% B over 3 minutes, and 5% B isocratic for 2 minutes. Instrument settings were as follows: m/z range: 100 to 1000, capillary temperature was set at 280°C, nitrogen sheath gas flow rate 80 (arbitrary units), auxiliary gas 20, spray voltage 4.0 kV, and tube lens offset 80 V. In addition, UV wavelength was monitored at 254 nm.

[6] = Concentration of ATV and metabolites in monkey bile obtained by BDC and UCC (LC-MS/MS); type: in vivo, cynomolgus macaques; details: UCC monkeys, 4‐5 h, 30 mg/kg ATV orally, ± standard deviation
[7] = dog; cited from earlier work
[8] = male, beagle, dog, bile, po, 40 mg/kg

Cmax ([1]; BDC dogs (n = 3)): 518 ± 301 nM
Tmax ([1]; BDC dogs (n = 3)): 1.7 ± 0.6 h
AUC ([1]; BDC dogs (n = 3)): 1.07 ± 0.279 µM·h
Cmax ([1]; UCC dogs (n = 3)): 642 ± 72 nM
Tmax ([1]; UCC dogs (n = 3)): 1.7 ± 0.6 h
AUC ([1]; UCC dogs (n = 3)): 2.35 ± 0.667 µM·h
Concentration in bile ([2]; 0‐2 h): 747 ± 729 µmol/L
Concentration in bile ([2]; 2‐4 h): 1368 ± 457 µmol/L
Concentration in bile ([2]; 4‐6 h): 585 ± 541 µmol/L
Concentration in bile ([2]; 6‐8 h): 262 ± 229 µmol/L
Concentration in bile ([2]; 8‐24 h): 42 ± 31 µmol/L
concentration at 6 h [2, 8]: 456 ± 109 µM
concentration at 24 h [2, 8]: 188 ± 255 µM
Cmax ([3]; BDC monkeys (n = 4)): 83 ± 14 nM
AUC ([3]; BDC monkeys (n = 4)): 1.08 ± 0.571 µM·h
Cmax ([3]; UCC monkeys (n = 3)): 52 ± 26 nM
Tmax ([3]; UCC monkeys (n = 3)): 1 ± 0.9 h
AUC ([3]; UCC monkeys (n = 3)): 0.501 ± 0.243 µM·h
Concentration in bile ([4]; 0‐2 h, n = 2 due to blocked/displaced cannulas): 101 µmol/L
Concentration in bile ([4]; 2‐4 h, ± standard deviation): 147 ± 53 µmol/L
Concentration in bile ([4]; 4‐6 h, ± standard deviation): 194 ± 120 µmol/L
Concentration in bile ([4]; 6‐8 h, n = 2 due to blocked/displaced cannulas): 114 µmol/L
Concentration in bile ([4]; 8‐24 h, ± standard deviation): 114 ± 67 µmol/L
concentration at 24 h ([4]; male, cynomolgus, cynomolgus monkey, bile, po, 30 mg/kg): 168 ± 45 µM
number of metabolites detected besides unchanged ATV [5]: 19
Concentration in bile [6]: 79 ± 42 µmol/L
Structure (SMILES): CC(C)c1c(C(=O)Nc2ccccc2)c(-c2ccccc2)c(-c2ccc(F)cc2)n1CC[C@@H](O)C[C@@H](O)CC(=O)O [ATV, atorvastatin, reference compound]
biliary excretion of ATV and its metabolites, share of the oral dose [7]: 33%
